Source: publication PMC6610666

Chains of the proteins cited; added tags and fusions are not shown.
UniProt Q8R0K9: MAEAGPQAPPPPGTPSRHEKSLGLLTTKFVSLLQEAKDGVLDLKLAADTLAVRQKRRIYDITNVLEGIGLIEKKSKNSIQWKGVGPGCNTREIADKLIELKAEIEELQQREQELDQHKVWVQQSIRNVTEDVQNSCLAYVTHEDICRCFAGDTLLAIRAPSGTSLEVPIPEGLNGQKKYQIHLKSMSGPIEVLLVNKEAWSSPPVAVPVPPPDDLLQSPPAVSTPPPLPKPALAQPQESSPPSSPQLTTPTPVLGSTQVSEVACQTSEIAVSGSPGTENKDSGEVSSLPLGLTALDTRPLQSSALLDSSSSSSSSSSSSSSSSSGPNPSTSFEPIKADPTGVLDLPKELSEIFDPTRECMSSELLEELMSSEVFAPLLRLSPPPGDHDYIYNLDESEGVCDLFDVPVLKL

Key:
[1] = target: LAP-tagged mouse E2F4 (mouse) (UniProt Q8R0K9); assay: affinity purification with mass spectrometry; LAP (EGFP, S tag)-tagged mouse E2F4 expressed by lentivirus in RB family TKO mESCs; tandem affinity purification; slices of the gel of the eluted fraction subjected to mass spectrometry
[2] = target: LAP-tagged human E2F4 (human), Q16254; assay: affinity purification with mass spectrometry; LAP (EGFP, S tag)-tagged human E2F4 expressed in RPE cells (Flp-In system); tandem affinity purification; slices of the gel of the eluted fraction subjected to mass spectrometry; details: remark: other sources report otherwise

B1: RanGAP1 (protein, UniProt P46061 1-589)
chain: MASEDIAKLAETLAKTQVAGGQLSFKGKGLKLNTAEDAKDVIKEIEEFDGLEALRLEGNTVGVEAARVIAKALEKKSELKRCHWSDMFTGRLRSEIPPALISLGEGLITAGAQLVELDLSDNAFGPDGVRGFEALLKSPACFTLQELKLNNCGMGIGGGKILAAALTECHRKSSAQGKPLALKVFVAGRNRLENDGATALAEAFGIIGTLEEVHMPQNGINHPGVTALAQAFAINPLLRVINLNDNTFTEKGGVAMAETLKTLRQVEVINFGDCLVRSKGAVAIADAVRGGLPKLKELNLSFCEIKRDAALVVAEAVADKAELEKLDLNGNALGEEGCEQLQEVMDSFNMAKVLASLSDDEGEDEDEEEEGEEDDEEEEDEEDEEDDDEEEEEQEEEEEPPQRGSGEEPATPSRKILDPNSGEPAPVLSSPTPTDLSTFLSFPSPEKLLRLGPKVSVLIVQQTDTSDPEKVVSAFLKVASVFRDDASVKTAVLDAIDALMKKAFSCSSFNSNTFLTRLLIHMGLLKSEDKIKAIPSLHGPLMVLNHVVRQDYFPKALAPLLLAFVTKPNGALETCSFARHNLLQTLYNI
With B1 the binding [1] was “binds”.

B2: RB, P06400 1-928 (protein)
chain: MPPKTPRKTAATAAAAAAEPPAPPPPPPPEEDPEQDSGPEDLPLVRLEFEETEEPDFTALCQKLKIPDHVRERAWLTWEKVSSVDGVLGGYIQKKKELWGICIFIAAVDLDEMSFTFTELQKNIEISVHKFFNLLKEIDTSTKVDNAMSRLLKKYDVLFALFSKLERTCELIYLTQPSSSISTEINSALVLKVSWITFLLAKGEVLQMEDDLVISFQLMLCVLDYFIKLSPPMLLKEPYKTAVIPINGSPRTPRRGQNRSARIAKQLENDTRIIEVLCKEHECNIDEVKNVYFKNFIPFMNSLGLVTSNGLPEVENLSKRYEEIYLKNKDLDARLFLDHDKTLQTDSIDSFETQRTPRKSNLDEEVNVIPPHTPVRTVMNTIQQLMMILNSASDQPSENLISYFNNCTVNPKESILKRVKDIGYIFKEKFAKAVGQGCVEIGSQRYKLGVRLYYRVMESMLKSEEERLSIQNFSKLLNDNIFHMSLLACALEVVMATYSRSTSQNLDSGTDLSFPWILNVLNLKAFDFYKVIESFIKAEGNLTREMIKHLERCEHRIMESLAWLSDSPLFDLIKQSKDREGPTDHLESACPLNLPLQNNHTAADMYLSPVRSPKKKGSTTRVNSTANAETQATSAFQTQKPLKSTSLSLFYKKVYRLAYLRLNTLCERLLSEHPELEHIIWTLFQHTLQNEYELMRDRHLDQIMMCSMYGICKVKNIDLKFKIIVTAYKDLPHAVQETFKRVLIKEEEYDSIIVFYNSVFMQRLKTNILQYASTRPPTLSPIPHIPRSPYKFPSSPLRIPGGNIYISPLKSPYKISEGLPTPTKMTPRSRILVSIGESFGTSEKFQKINQMVCNSDRVLKRSAEGSNPPKPLKKLRFDIEGSDEADGSKHLPGESKFQQKLAEMTSTRTRMQKQKMNDSMDTSNKEEK
With B2 the binding [2] was “binds”.

Results are given in words; binding and its absence hold for the method and conditions named. In cells and extracts the contact can be indirect. Here binding means that the protein was enriched with, or labelled near, the bait; the list need not be complete.
